According to patent publication US12527768B2, “Compositions comprising an anti-inflammatory drug and a dicer activator for use in the treatment of neuronal diseases” (NeuroSense Therapeutics Ltd., priority 2017, dated 2026):
At least one compound was matched to its structure with a doubt left.

Experiment: Solubility and spectrophotometer absorption in stock solutions and zebrafish raising buffer (DB)

Q: Which results are given for Cc1ccc(-c2cc(C(F)(F)F)nn2-c2ccc(S(N)(=O)=O)cc2)cc1 [Celecoxib]?
A: dissolution of powder in stock solution, 100% DMSO (100 mM and 10 mM stock in 100% DMSO): completely dissolved; aggregates in the final diluted solution in DB (highest planned concentration in DB (30 μM Celecoxib; 100 μM Ciprofloxacin), 28° C., 24 or 48 hrs): no aggregates were observed also after 24 or 48 hrs
